# Results published in PMC7862700.
# The list shows a part of the results, in another mix than the full data. At the low end of the ranking the order means little.
# Target: SPI1 (UniProt P17947)
# Experiment: DAPPL (digital affinity profiling via proximity ligation, sequencing)
# Conditions: 10 mM Tris-HCl pH 7.5, 50 mM NaCl, 1 mM DTT, 4% glycerol, room temperature, 30 min; GST-TFs on glutathione beads, 16-mer random dsDNA library, 0.1% …; high values mean tight binding; double strand, one strand shown; scale: fold enrichment (6-mer frequency, TF over GST control)
row,Sequence,binding signal
1,GGCCCT,0.973
2,ACCAAG,0.883
3,TCGTCG,0.878
4,GGTAAA,1.04
5,GGTATG,0.937
6,GAAAGT,0.898
7,AGACTC,0.906
8,GATTAG,0.824
9,AGCTAG,1.08
10,CATGCG,0.978
11,GGGTAT,0.91
12,AGGATG,0.933
13,TAGTCA,0.871
14,AGCGCT,0.982
15,AGGCTA,0.892
16,TCTCTT,1.32
17,CCGGTT,2.11
18,GCAACC,0.979
19,CTCACA,1.27

# Single entries from above:
# binding signal, CTCACA is entered as 1.27
# binding signal, AGGATG is entered as 0.933

# Remaining list, next part:

row,Sequence,binding signal
1,CTGTAG,0.935
2,AAGGGT,1.05
3,CAACTT,1.69
4,GCTAGC,1.29
5,AGAACC,0.871
6,TTCTAA,1.14
7,GAACTT,1.74
8,TGAAGG,0.909
9,GTCTAG,0.88
10,GTTGCC,0.869
11,CCAAAG,0.983
12,GGATAC,0.94
13,GACTTA,0.962
14,TGATAA,1.05
15,TCCGCG,1.3
16,TGTTGG,0.982
17,TGAAGA,0.955
18,AGGCCC,0.93
19,TGGGAC,0.939
